The text below walks through data of patent US20160046678A1 (ZYNGENIA, published 2016).

Sequences of proteins named here, by UniProt entry; tags and fusion partners are left off. Residues count along the entry.
UniProt Q16552, residues 24-155: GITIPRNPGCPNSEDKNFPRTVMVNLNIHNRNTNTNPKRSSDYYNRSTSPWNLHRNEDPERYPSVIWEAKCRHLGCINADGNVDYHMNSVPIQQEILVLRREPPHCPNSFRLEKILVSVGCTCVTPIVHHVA

Assay [1] has as its target T1, Angiopoietin-2 (Ang2) (human, UniProt O15123 19-496, biotin label in Examples 22-24).
T1 construct: also called rhAng2; recombinant Ang2
T1 sequence (looked up): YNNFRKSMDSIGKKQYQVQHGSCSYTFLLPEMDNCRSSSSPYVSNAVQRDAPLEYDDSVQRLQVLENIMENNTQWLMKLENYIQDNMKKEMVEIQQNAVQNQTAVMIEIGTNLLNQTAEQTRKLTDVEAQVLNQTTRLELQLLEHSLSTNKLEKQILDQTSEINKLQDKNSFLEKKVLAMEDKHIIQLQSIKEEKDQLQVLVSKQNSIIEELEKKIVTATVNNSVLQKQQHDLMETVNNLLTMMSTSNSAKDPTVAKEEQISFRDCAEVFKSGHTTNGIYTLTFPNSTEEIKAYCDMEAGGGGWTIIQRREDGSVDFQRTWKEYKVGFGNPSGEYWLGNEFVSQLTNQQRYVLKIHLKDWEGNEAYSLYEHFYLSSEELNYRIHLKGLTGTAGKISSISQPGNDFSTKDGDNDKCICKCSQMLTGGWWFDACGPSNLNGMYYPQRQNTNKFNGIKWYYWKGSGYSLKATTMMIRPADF
Description: phage ELISA on coated protein, anti-M13 detection. (In general: ELISA stands for enzyme-linked immunosorbent assay.)

Assay [2] has as its target T1, Angiopoietin-2 (Ang2). Description: Example 48, method not detailed.
The target in a further assay is IL17a (UniProt Q16552). Description: peptide selection, Example 48.

No constants are given. Whether binding was seen depends on the method and setting. Some results given as binding are weak or reduced against the parent protein; the word gives no strength.

As for LHVDCYFYPNPPHCYIDE [ANG156], the binding entry with Angiopoietin-2 (Ang2) [1] and in the assay with Angiopoietin-2 (Ang2) [2] was “binds” throughout.

Consider PHEECYFYPNPPHCYTMS [ANG318], for which the binding entry with Angiopoietin-2 (Ang2) [1] is “binds”.

For the molecule KSVSMKTCQDYPGWRYCQ [ANG303], the binding result with Angiopoietin-2 (Ang2) [1] and in the assay with Angiopoietin-2 (Ang2) [2] was “binds” throughout.

Consider LQELCHYLGFEECVGQQ [ILA68], for which the binding entry with IL17a is “binds”.

With DCFWYPNPEWCY [ANG100], the binding entry in the assay with Angiopoietin-2 (Ang2) [1] was “binds”.

Consider VVVEFWECYVYPNPPHCY [ANG129], for which the binding result in the assay with Angiopoietin-2 (Ang2) [1] and with Angiopoietin-2 (Ang2) [2] was “binds” each time.

Take IRDDCQENWQSELVCFLLG [ILA53]: the binding entry in the assay with IL17a was “binds”.

In the case of TADLCMFLWHQDCGRIF [ILA71], in the assay with IL17a, the binding entry was “binds”.

Take NALWCWFPEASECGLME [ILA63]: in the assay with IL17a, the binding result is reported as “binds”.

Consider QDELCNFIFNDHCASAF [ILA67], for which the binding entry with IL17a is “binds”.

QDHDCYFYPNPPHCYLEG [ANG157]: the binding entry in the assay with Angiopoietin-2 (Ang2) [1] and with Angiopoietin-2 (Ang2) [2] was “binds” throughout.

With YTYYCVETEYNMVCELDY [ILA64], in the assay with IL17a, the binding result is “binds”.

On to LGLWCWMFPMDPDCHRGY [ILA55], for which, in the assay with IL17a, the binding result is reported as “binds”.

As to LAYECWVLEDLEYVICEQGM [ILA56], the binding result in the assay with IL17a is given as “binds”.

Turning to LLWECYFYPNPSHCYTDR [ANG179], the binding entry with Angiopoietin-2 (Ang2) [1] and with Angiopoietin-2 (Ang2) [2] was “binds” throughout.

With QSPWCFMFPQEEHCNHYN [ILA58], the binding entry with IL17a was “binds”.

As to MSLWCWMFPWDNMCFKFS [ILA52], in the assay with IL17a, the binding result is on record as “binds”.

For the molecule LSLWCWLHDQAEFCVESN [ILA73], in the assay with IL17a, the binding result is given as “binds”.

Take TWYLCWESQWWDVYYCEEEG [ILA51]: the binding result with IL17a was “binds”.

For IGWQCEYLPWDECQWQF [ILA65], in the assay with IL17a, the binding entry is “binds”.

DDLFCWMFPSAYVCLPPV [ILA66]: the binding result with IL17a is on record as “binds”.

LWDDCYFFPNPPHCYNSP [ANG200]: the binding entry with Angiopoietin-2 (Ang2) [1] is recorded as “binds”.

As for LSLWCWIFPTEETCKHGL [ILA59], in the assay with IL17a, the binding result is listed as “binds”.

On to VPIDCYFYPNPPECYLHN [ANG126], for which the binding entry with Angiopoietin-2 (Ang2) [1] and with Angiopoietin-2 (Ang2) [2] was “binds” in each case.

On to VPWDCYFYPNPPHCYEDA [ANG163], for which the binding result with Angiopoietin-2 (Ang2) [1] and with Angiopoietin-2 (Ang2) [2] was “binds” in each case.

Regarding LTMWCEEMIKDEWWCVPAI [ILA62], the binding result in the assay with IL17a is on record as “binds”.

Regarding LFFICYETPEEYMYCLPKG [ILA57], in the assay with IL17a, the binding entry was “binds”.

In the case of ASLWCWMYPNDISCFMES [ILA69], the binding entry with IL17a is recorded as “binds”.

Consider KCPLLPDWASCR [ANG599], for which the binding result with Angiopoietin-2 (Ang2) [1] and with Angiopoietin-2 (Ang2) [2] was “binds” throughout.

Consider HSAWCWFPEDNICLDRR [ILA61], for which the binding result with IL17a is “binds”.

For WPLECYTDEELYDIWCLMDL [ILA74], the binding result with IL17a was “binds”.

On to VNVFLKTCQDYPGWRYCH [ANG335], for which the binding entry with Angiopoietin-2 (Ang2) [1] and with Angiopoietin-2 (Ang2) [2] was “binds” each time.
